According to PMC2483945, “Structure of the Head of the Bartonella Adhesin BadA” (PLoS Pathogens, 2008):
Results are given in words; binding and its absence hold for the method and conditions named. Some entries that bind do so weakly or less than the wild type.

Biological target: BadA head fragment (Trp-ring domain, GIN domain, neck and first stalk segment; residues 375 to 536) (Bartonella henselae) (UniProt Q5MWV9)
Test: crystal structure; hanging drop at 291 K, space group P1, one trimer in the asymmetric unit, 1.13 Å; both purified

B1: BadA head fragment (Trp-ring domain, GIN domain, neck and first stalk segment; residues 375 to 536) (domain or fragment)
chain: KALRGMISEKGGWNLTVNNDNNTVVSSGGALDLSSGSKNLKIVKDGKKNNVTFDVARDLTLKSIKLDGVTLNETGLFIANGPQITASGINAGSQKITGVAEGTDANDAVNFGQLKKIETEVKEQVAASGFVKQDSDTKYLTIGKDTDGDTINIANNKSDKRT
notes: Residues 385-498 are resolved in the crystal; also called BadA construct; BadA fragment; source: recombinantly expressed, purified as described [11]
binding: binds
